Some of the results follow.

The chains behind the UniProt entries cited, without tags or fusion partners.
UniProt Q0JBA9, entry or part of it: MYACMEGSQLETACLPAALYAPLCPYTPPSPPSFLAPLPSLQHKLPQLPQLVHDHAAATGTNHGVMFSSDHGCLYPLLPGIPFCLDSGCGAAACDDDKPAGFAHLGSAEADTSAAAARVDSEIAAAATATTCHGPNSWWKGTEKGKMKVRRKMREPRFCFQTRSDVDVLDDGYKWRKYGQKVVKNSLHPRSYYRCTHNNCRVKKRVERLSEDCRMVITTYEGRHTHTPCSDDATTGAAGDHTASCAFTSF

Results on 42 sequences are retold here after PMC7819943, “Rice protein-binding microarrays: a tool to detect cis-acting elements near promoter regions in rice”.

The target in the assay is OsWRKY34 (Oryza sativa, UniProt Q0JBA9 1-250). The assay is described as follows: protein-binding microarray (RPBM); PBS, 2% BSA, 51.3 ng/ul salmon testes DNA, 50 uM zinc acetate, 200 nM TF, 25 C, 1 h; high values mean tight binding. Conditions: protein: recombinant; tags: N-terminal polyhistidine and DsRed monomer fusion (pET32a); label: CyDye5-dUTP incorporated in the synthesized complementary strand; 3' TTTTT single-stranded linker to array surface; dsDNA, one strand shown. The method, boiled down:
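Per-feature fluorescence intensity (arbitrary units), read on an Axon 4000B scanner, is the binding signal. Transcription factors carrying an N-terminal polyhistidine tag and DsRed fusion were expressed in E. coli BL21-CodonPlus and purified on Ni–NTA. A custom Agilent array, made double-stranded by primer extension with Cy5-dUTP and blocked with 2% BSA, was incubated with 200 nM protein in PBS, 2% BSA, salmon testes DNA and 50 µM zinc acetate at 25 °C for 1 h and then washed.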
Turning to “GTCCACGCCTCACCTCGCCTCGGGCGCCTTCTTCTCCAAGCGGAGTCACCTAGTGCAG”, the binding signal was 10100 fluorescence intensity (a.u.).
Turning to “GTTTTGTTTGCTTTTCAATTTATTTTAATAACTTTTTCAACGGAGTCACCTAGTGCAG”, the binding signal was 9400 fluorescence intensity (a.u.).
With “CCATGATTATTCTTTTTACTCTACCATGGTCCCAAGTCTCCGGAGTCACCTAGTGCAG”, the binding signal was 8290 fluorescence intensity (a.u.).
With “CTACTAATCCGTACTCCATCCGTCTCATTTTAAATACAATCGGAGTCACCTAGTGCAG”, the binding signal was 10200 fluorescence intensity (a.u.).
“CACGTCGGCCCCGCGCGCTGTCCGATCGGCTTGATTGAACCGGAGTCACCTAGTGCAG”: the binding signal was 9670 fluorescence intensity (a.u.).
Then “CGGGGCTAGGCCGCCGGTGGGGAGGCTTCGGGAGGTGGGGCGGAGTCACCTAGTGCAG”, with 11900 fluorescence intensity (a.u.); and “CCCTGCCGATCCGTTCCGGCTCTTGATATGCACCGCACTTCGGAGTCACCTAGTGCAG”, with 8900 fluorescence intensity (a.u.).
In the case of “AATTATGATCTTTTTAAAATCCACTCTTAACGCTTTTTTCCGGAGTCACCTAGTGCAG”, the binding signal is 8100 fluorescence intensity (a.u.).
Consider “ACCATCTTTCTCTTTACCATGATCATTTTAGCATCTTTGACGGAGTCACCTAGTGCAG”, for which the binding signal is 10000 fluorescence intensity (a.u.).
Take “ATCCATGAGCTGTTGCTGCAAATCCTCGCTATTCTTTCCGCGGAGTCACCTAGTGCAG”: the binding signal is 9050 fluorescence intensity (a.u.).
On to “TTTTTTACTTCTCGGGCTTTCCTTAGTTTCCTTCGTTTTCCGGAGTCACCTAGTGCAG”, for which the binding signal was 9700 fluorescence intensity (a.u.).
For the sequence “CACCCGGCGCTGCTTCTCTGCATTTAAATCGAAGCACGCCCGGAGTCACCTAGTGCAG”, the binding signal is 8910 fluorescence intensity (a.u.).
“CCCACCCAAGCAACGGTTCACCTACCCACCAGTAATAAAGCGGAGTCACCTAGTGCAG”: the binding signal was 8600 fluorescence intensity (a.u.).
For the sequence “TCTCATTTTATCTGATTTTTGTATCGAGTTCTTGTTTATCCGGAGTCACCTAGTGCAG”, the binding signal was 9400 fluorescence intensity (a.u.).
As for “GTGTAAGACCATCTTCTCCCTATTCTTGGGTTCTTAGTTCCGGAGTCACCTAGTGCAG”, the binding signal is 8510 fluorescence intensity (a.u.).
For “ATCCTGGTGCGGCCGCGACCTCACGCACGCATCTCTCTCTCGGAGTCACCTAGTGCAG”, the binding signal was 9960 fluorescence intensity (a.u.).
Then “ACCACACATCCCCAAATTTCTTTTATGGTACAACTCAAAACGGAGTCACCTAGTGCAG”, with 8590 fluorescence intensity (a.u.); and “ATCGTTACCTATTCTTGTACCACATCAATCTGCACCGACGCGGAGTCACCTAGTGCAG”, with 8910 fluorescence intensity (a.u.).
In the case of “AAACTCAATGCATGCACCATCCCCACTATTTTCTAGCCAACGGAGTCACCTAGTGCAG”, the binding signal was 8290 fluorescence intensity (a.u.).
For “CGGCTTCTCGCTTTCTTGTTTCTCGTGGAGTTGCTTTTTTCGGAGTCACCTAGTGCAG”, the binding signal is 17500 fluorescence intensity (a.u.).
“TTATGTATCCGCCATTGCCTGTTGCAACGCAGTCTTTTTCCGGAGTCACCTAGTGCAG”: the binding signal is 8680 fluorescence intensity (a.u.).
Then “GGTTTTGGTGGAAAGGAGGGGAGGCATGGAGGGCGGCGGCCGGAGTCACCTAGTGCAG”, with 12800 fluorescence intensity (a.u.); and “ATATGTTGTCCAAGTCATCGTTGATTTTGAGTTGTGCTGTCGGAGTCACCTAGTGCAG”, with 12200 fluorescence intensity (a.u.); and “CCAATCACCGCCCTCCACGTGGCAAATCTCGCTTCGACTCCGGAGTCACCTAGTGCAG”, with 9100 fluorescence intensity (a.u.).
For the sequence “AACACCGTTCCTCCGCCGCGCCGTCATTGCCACCGGCCTCCGGAGTCACCTAGTGCAG”, the binding signal is 9730 fluorescence intensity (a.u.).
“ACCTACCTCTCTCGTTTTTCGCCCATTTTCCCAACCCACCCGGAGTCACCTAGTGCAG”: the binding signal was 10600 fluorescence intensity (a.u.).
Take “ACGCGCCAACTCCCAACTGCTACGATCTTTTGGTAGCCTCCGGAGTCACCTAGTGCAG”: the binding signal was 8480 fluorescence intensity (a.u.).
For the sequence “GTACATAATTCTATCGTCCTGTATTTTCCCCATCTCTATCCGGAGTCACCTAGTGCAG”, the binding signal is 9550 fluorescence intensity (a.u.).
On to “ACACCCGTCCGTCCCGTCTCGTTCTGCGCCGTCTCGCCGGCGGAGTCACCTAGTGCAG”, for which the binding signal was 11100 fluorescence intensity (a.u.).
Turning to “GTGTTGGTGGCTCTGGCTGCGTCGACGTGCGCAGGGCGTTCGGAGTCACCTAGTGCAG”, the binding signal was 8050 fluorescence intensity (a.u.).
“CGTGGACCGTTGGCTCGTGGGCCCACCTGTCAAAATACTCCGGAGTCACCTAGTGCAG”: the binding signal was 8060 fluorescence intensity (a.u.).
Regarding “CTGGTGATTCCATCCAGCCGTCCACATGGTCATCGCTCATCGGAGTCACCTAGTGCAG”, the binding signal was 8040 fluorescence intensity (a.u.).
“GATGTGGTGGGGTGACATGACGCCCGGCGTCCCAATCATTCGGAGTCACCTAGTGCAG”: the binding signal is 8230 fluorescence intensity (a.u.).
“TCTGCCTGCTGCTCTGTTCGTCGGTTCGTGGTTTGTACGACGGAGTCACCTAGTGCAG”: the binding signal is 9690 fluorescence intensity (a.u.).
Regarding “GTTTCTGCGCTCAACTTTGATCGTCCGTCTTATTTAAATTCGGAGTCACCTAGTGCAG”, the binding signal is 11700 fluorescence intensity (a.u.).
Then “AGTAGCAATTACCCACGTGGCATCCACCGCTGTTGTTTCCCGGAGTCACCTAGTGCAG”, with 10700 fluorescence intensity (a.u.); and “TTGGTCGTCTAATTCATGCTGACCACTAATTAAGTTACTGCGGAGTCACCTAGTGCAG”, with 8040 fluorescence intensity (a.u.); and “ACCCATATGTCAGCATGCCACGTCAGCCTCTTCTCTATTTCGGAGTCACCTAGTGCAG”, with 10100 fluorescence intensity (a.u.).
Turning to “CCTCGCCGGAGCCGCCGCCGTATCGTTCTTCTCCCACTCGCGGAGTCACCTAGTGCAG”, the binding signal was 10100 fluorescence intensity (a.u.).
As for “ATTCAGTGGATCCTGCTGCTCAAACTTTGCTGACTGAATTCGGAGTCACCTAGTGCAG”, the binding signal was 8820 fluorescence intensity (a.u.).
Consider “GCCTGACAGCCATATCCATTTGGAAGCTACTACTACTACACGGAGTCACCTAGTGCAG”, for which the binding signal was 8280 fluorescence intensity (a.u.).
Take “TTTCTTGCTCTTTTCATTTGCCACTTCTCTGTTCTCGTGTCGGAGTCACCTAGTGCAG”: the binding signal is 12800 fluorescence intensity (a.u.).
